{"source": "patent US20160230205A1", "about": "(R P SCHERER TECHNOLOGIES, published 2016)", "binders": {"B1": {"name": "Catalytic core of H. sapiens formylglycine-generating enzyme with TEV protease site and C-terminal His6 tag (Hs-cFGE) (enzyme)", "chain": "DRSLEANAPGPVPGERQLAHSKMVPIPAGVFTMGTDDPQIKQDGEAPARRVTIDAFYMDAYEVSNTEFEKFVNSTGYLTEVAAAPWWLPVKGANWRHPEGPDSTILHRPDHPVLHVSWNDAVAYCTWAGKRLPTEAEWEYSCRGGLHNRLFPWGNKLQPKGQHYANIWQGEFPVTNTGEDGFQGTAPVDAFPPNGYGLYNIVGNAWEWTSDWWTVHHSVEETLNPKGPPSGKDRVKKGGSYMCHRSYCYRYRCAARSQNTPDSSASNLGFRCAADRLPTMDKGENLYFQGHHHHHH"}}, "key": {"[1]": {"target": "T1, 14 amino acid FGE substrate peptide …", "T1 sequence (peptide)": "ALCTPSRGSLFTGR", "assay": "Michaelis-Menten kinetics from discontinuous RP-HPLC activity assay"}, "[2]": {"target": "T1, 14 amino acid FGE substrate peptide …", "assay": "RP-HPLC and LC-MS monitoring of substrate disulfide side products during turnover"}}, "note": "These are yes or no findings as the source states them, for the method shown. Some entries that bind do so weakly or less than the wild type. Sequences can lack the tags named with a protein."}
{"binder": "B1", "values": [{"measurement": "binding", "setting": "[1]", "result": "binds"}, {"measurement": "binding", "setting": "[2]", "result": "binds"}]}
